Test results reported in paper PMC12040169 (PLOS Biology, 2025).
The other results are listed elsewhere or left out.

tested on: T1, CTL2-GFP (C. trachomatis L2/434/Bu, GFP-expressing); design: species or system HeLa; Intracellular C. trachomatis growth in HeLa cells, bulk GFP fluorescence relative to DMSO; settings: bulk GFP, single well; 28.5 h, 10 µM; inhibitor
T1 construct: L2/434/Bu, GFP-expressing

Row | SMILES | % of control remaining
1 | Cc1ccnn1CCC(=O)N1CCCC1c1nc2ccccc2[nH]1 (stereo not drawn) [CBK285178] | 78.1332%
2 | CC(C)c1ccccc1OCC(=O)OCCN1C(=O)c2ccccc2C1=O [CBK264841] | 140.326%
3 | N#C/C(=C\c1ccc(N2CCN(c3ccc(F)cc3)CC2)c([N+](=O)[O-])c1)c1nn(-c2ccccc2)c(N)c1C#N [CBK267927] | 142.469%
4 | CCN(C(C)=O)c1nc(CN2CCOC(c3ccc(F)cc3)C2)cs1 (stereo not drawn) [CBK306213] | 120.209%
5 | CCN(CC)CCNC(=O)/C(=N\O)c1ccccc1 [CBK288408] | 109.954%
6 | CCOC(=O)c1[nH]c2ccccc2c1NC(C)=O [CBK086755] | 114.594%
7 | CCN(CC)C(=O)CN1CCCN(c2cc(Oc3ccc(OC)c(OC)c3)ncn2)CC1 [CBK083359T] | 105.347%
8 | C=CCN1C(=O)CC2(C1=O)C(=O)N(Cc1nnc(-c3ccc(C)cc3)o1)c1ccc(Cl)cc12 (stereo not drawn) [CBK075434] | 171.105%
9 | O=C(Nc1ccc([C@@H](O)[C@H]2COCC(=O)N2Cc2cccnc2)cc1)c1ccccc1 [CBK289319] | 171.14%
10 | O=C(O)c1ccccc1-c1nc(-c2ccccc2F)no1 [CBK268022] | 108.597%
11 | Cc1ccnc(NS(=O)(=O)c2ccc(NS(=O)(=O)c3ccc(F)cc3)cc2)n1 [CBK051024] | 122.599%
12 | CC(C)N1CCC(CNC(=O)Cn2ccc3ccc(F)cc32)CC1 [CBK282571] | 124.415%
13 | CCc1nc2c(OCCOc3ccccc3)cccn2c1N(C=O)CC(=O)N(C)C [CBK147510] | 106.657%
14 | c1coc(CNc2ncc(-c3ccc(N4CCOCC4)cc3)n3ccnc23)c1 [CBK091220] | 68.1687%
15 | Cc1cc(O)c(C(C)C)cc1N1C(=O)c2ccc([N+](=O)[O-])cc2C1=O [CBK115323] | 124.456%
16 | c1cnc(-c2nnn[nH]2)c(-c2ccc(COc3ccc4c(c3)OCO4)cc2)n1 [CBK050812] | 100%
17 | OC(COc1ccccc1F)CSc1nc(NC2CC2)c2ccccc2n1 (stereo not drawn) [CBK297902] | 141.258%
18 | Cn1c(=O)c2c(nc(NCc3ccc4c(c3)OCO4)n2Cc2cccc(Cl)c2)n(C)c1=O [CBK074359] | 83.5783%
19 | Cc1ccc(C2(CN3CCN(Cc4cnn(C)c4)CC3)CC2)cc1 [CBK282480] | 137.067%
20 | CN(C)CCCNc1ccc(-c2n[nH]c(=O)c3ccccc23)cc1[N+](=O)[O-] [CBK266200] | 159.888%
21 | CC(C)(C)OC(=O)NCCc1ccc(Nc2cc(-c3ccsc3)ncn2)cc1 [CBK090958] | 116.756%
22 | COc1cccc(CN2CCC3(CC2)c2[nH]c4ccc(OCc5ccccc5)cc4c2CCN3C=O)c1 [CBK040462] | 106.469%
23 | Cc1cc(C)c(S(=O)(=O)Nc2ccc(S(=O)(=O)Nc3ccc(Cl)cc3Cl)cc2)c(C)c1 [CBK266022] | 54.4082%
24 | COc1ccc(-c2cc(C(=O)NCc3ccc(N)cc3)cnc2-c2cccc(C)c2)cc1 [CBK036728] | 175.873%
25 | CC(=O)c1ccc(O)c2ncccc12 [CBK015821] | 127.653%
26 | Cc1cc(C(=O)NCc2ccnc(N3CCOCC3)c2)c(C)n1-c1cccc(Cl)c1 [CBK298301] | 116.177%

3 entries picked at random from the list so far:
Row | SMILES | % of control remaining
20 | CN(C)CCCNc1ccc(-c2n[nH]c(=O)c3ccccc23)cc1[N+](=O)[O-] [CBK266200] | 159.888%
1 | Cc1ccnn1CCC(=O)N1CCCC1c1nc2ccccc2[nH]1 (stereo not drawn) [CBK285178] | 78.1332%
25 | CC(=O)c1ccc(O)c2ncccc12 [CBK015821] | 127.653%

Continuation.

Row | SMILES | % of control remaining
27 | CC(C)(C)NC(=O)CN1CCC(c2ccc(F)cc2)CC1 [CBK283629] | 117.533%
28 | Cc1cc(CN(C)Cc2c(C)nc3c(C)cccn23)n[nH]1 [CBK281716] | 108.867%
29 | COc1cccc(C2C(C(=O)c3ccc(Br)cc3)=C(O)C(=O)N2CCN2CCOCC2)c1OC (stereo not drawn) [CBK264855] | 126.349%
30 | Nc1ncnc2c1cnn2[C@H]1C[C@@H](O)[C@@H](CO)O1 [CBK201325] | 149.762%
31 | O=C1COc2ccccc2C/C=C/CC2(CCN(C(=O)CCn3ccnc3)CC2)CN1 [CBK292131] | 115.138%
32 | O=C(Nc1sc2c(c1C(=O)O)CCC2)c1ccco1 [CBK152436] | 118.322%
33 | NCC1CCN(c2cc(C(F)(F)F)c3scc(C(=O)NCCC4=CCCCC4)c3n2)CC1 [CBK028475] | 113.201%
34 | O=C(NC1CCCOC1)c1cc(-c2ccc(F)cc2)no1 (stereo not drawn) [CBK283141] | 96.4398%
35 | CN(CCCc1cc(-c2cccc(F)c2)n[nH]1)C(=O)c1cnn(C)c1 [CBK305745] | 97.9818%
36 | CN(Cc1nnc(C2CC2)n1C)C1CCN(CCCc2cn[nH]c2)C1 (stereo not drawn) [CBK305305] | 112.337%
37 | O=C(NC1(c2ccccc2)CC1)c1cccc(-n2cnnc2)c1 [CBK282779] | 73.4334%
38 | CSc1ncc(C(=O)N2CCC(N3CCCC(O)C3)CC2)cn1 (stereo not drawn) [CBK307055] | 105.25%
39 | COc1cc(/C=N/NC(=O)CSc2n[nH]c(=O)[nH]c2=O)ccc1O [CBK263513] | 94.8153%
40 | Cn1nccc1CN1CCOC(c2nc(C(C)(C)C)cs2)C1 (stereo not drawn) [CBK304690] | 122.329%
41 | O=C(CSc1n[nH]c(=O)n1C1CC1)NCCCSc1ccccc1 [CBK295620] | 140.872%
42 | Cn1ccc(NC(=O)c2cccc(S(=O)(=O)N3CCCC3)c2)n1 [CBK306032] | 102.019%
43 | c1ccc2c(c1)CC(Oc1cncc(N3CCNCC3)n1)C2 [CBK000242G] | 110.627%
44 | O=C(/C=C/c1cccnc1)Nc1cncc(OC2CCNCC2)n1 [CBK038919T] | 113.651%
45 | CCOC(=O)c1sc(-c2ccccc2)nc1C [CBK074204] | 108.232%
46 | Nn1c(SCC(=O)Nc2ccc3c(c2)OCO3)nnc1-c1ccccn1 [CBK267550] | 104.961%
47 | Cc1nccn1CC1(O)CCN(C(=O)CCc2ccccc2F)CC1 [CBK284689] | 132.216%
48 | CCOc1ccc(-c2nnn(CC(N)=O)n2)cc1 [CBK068283] | 108.195%
49 | CC(C)(C)OC(=O)N1CCN(c2cc(NCc3ccccc3)ncn2)CC1 [CBK000137] | 97.5818%
50 | CC(C)c1ccc(C(C)NC(=O)Cn2cc(C(=O)Nc3ccc(F)cc3)ccc2=O)cc1 (stereo not drawn) [CBK286049] | 118.649%
51 | CCOc1ccc(C)cc1S(=O)(=O)NCCc1c(C)[nH]c2c(Cl)cccc12 [CBK268859] | 141.714%
52 | NC(=O)CN1C(=O)CO[C@H]2CN(Cc3cnc4ccccc4c3)C[C@H]21 [CBK289242] | 141.112%

Row | SMILES | % of control remaining
53 | COCCn1c(CN2CCC(Cc3ccccc3)CC2)nc2c1c(=O)n(C)c(=O)n2C [CBK269378] | 149.835%
54 | COc1ccccc1N(CC(O)CN1C(C)CCCC1C)S(=O)(=O)c1ccccc1 (stereo not drawn) [CBK265585] | 127.136%
55 | CNC(=S)NCc1ccncc1 [CBK020033] | 110.16%
56 | COc1ccc(C(C)C)cc1-c1cncc(NCC(c2cccnc2)N(C)C)n1 (stereo not drawn) [CBK037132] | 91.4399%
57 | COCCNC(=O)N[C@H](Cc1ccccc1)C(=O)O [CBK286667] | 129.715%
58 | CCn1c(C(C)C)nc2cc(NC(=O)Cc3c(C)noc3C)ccc21 [CBK281527] | 131.897%
59 | O=C(O)c1cc(NC(=O)c2ccccc2[N+](=O)[O-])cc(C(=O)O)c1 [CBK262135] | 100%
60 | COc1ccc(S(=O)(=O)N2CCC(C(=O)N(C)C(c3cnccn3)c3ccccc3C)CC2)cc1 (stereo not drawn) [CBK060210] | 132.727%
61 | CCn1nc(C)c(C(C)NC(=O)c2ccn(C(F)F)n2)c1C (stereo not drawn) [CBK281534] | 145.578%
62 | CC(C)c1ccc(/C=C/C(=O)NCc2ccc(S(N)(=O)=O)cc2)cc1 [CBK161511] | 120.238%
63 | Nc1[nH]ncc1-c1nnc(Nc2ccc3c(c2)OCO3)o1 [CBK288537] | 118.55%
64 | COc1ccc(C(C)C)cc1-c1cncc(N(C)CCN(C)C)n1 [CBK065364] | 119.931%
65 | NC(=O)[C@H]1C[C@@H](O)[C@H](O)[C@H]2[C@@H]1S/C(=N\c1ccccc1)N2Cc1cccs1 [CBK288944] | 105.554%
66 | Cc1c(-c2cc(-c3cnn(C)c3C)[nH]n2)cnn1C [CBK288013] | 124.534%
67 | FC(F)(F)c1cccc(CN2CCN(CCc3ccccc3)CC2)c1 [CBK126421] | 105.208%
68 | CC(C)OC(=O)c1nnn(-c2nonc2N)c1CN1CCCCCC1 [CBK027601] | 117.586%
69 | CCOC(=O)c1c(NC(=O)NCc2cccnc2)sc2c1CCC2 [CBK307585] | 143.439%
70 | COc1cc(-c2ccc(Nc3cccnc3)nc2)cc(OC)c1OC [CBK037704] | 217.929%
71 | O=C(CO)N1CC2(CCN(CCS(=O)(=O)c3ccccc3)CC2)c2ccccc21 [CBK131505] | 94.9364%
72 | COc1cccc(OCC(=O)Nc2ccccc2C(=O)O)c1 [CBK286819] | 124.691%
73 | COc1ccc(C2OCCN2C(C)=O)cc1 (stereo not drawn) [CBK004536] | 121.906%
74 | CCc1nc2ccc(NC(=O)CCCc3ccncc3)cc2[nH]1 [CBK283268] | 70.3294%
75 | c1cnc(NCc2cc3n(n2)CCN(CC2CCCNC2)C3)nc1 (stereo not drawn) [CBK306981] | 122.968%
76 | Cc1ccc2nsnc2c1NC(=O)CSc1nccn1C [CBK269411] | 105.304%
77 | CCN(Cc1ccncc1)C(=O)NCCN1CCOCC1 [CBK145055] | 106.495%
78 | CC(=O)N1CCc2sccc2C1c1ccc(NCc2ccc(F)cc2F)cc1 (stereo not drawn) [CBK286455] | 134.964%
